This is an account of results in patent publication US20160347802A1.

These are yes or no findings as the source states them, for the method shown. For some of these results: Where a sequence is shown, tags or fusion partners need not be part of it.

One assay deals with RGMc, AVEXIS protein. The assay is described as follows: AVEXIS competition: RGMc bait, Neo1 prey, purified Draxin as inhibitor.
Assay [1] concerns the target zebrafish Dcc extracellular domain, AVEXIS prey protein (zebrafish). Put plainly: AVEXIS.
Assay [2] addresses zebrafish Neo1 extracellular domain, AVEXIS prey protein (zebrafish). Put plainly: AVEXIS.
The target in assay [3] is zebrafish Unc5b extracellular domain, AVEXIS prey protein (zebrafish). Put plainly: AVEXIS.
Assay [4] has as its target Vasn (Slit-like2), AVEXIS protein. Put plainly: AVEXIS competition: Vasn bait, Islr2 prey, Draxin232-252aa-hFC as inhibitor.
In the next assay the target is Cntn1a, AVEXIS protein. Put plainly: AVEXIS competition: Cntn1a bait, Ptprz1b prey, Draxin232-252aa-hFC as inhibitor.
A further assay addresses EphB4a, AVEXIS protein. Put plainly: AVEXIS competition: EphB4a bait, EphrinB2a prey, Draxin232-252aa-hFC as inhibitor.

B1: purified His-tagged full-length zebrafish Draxin protein (Draxin-CD4d3+4-6XHis) (ligand, not shown: small tags and cut ends)
chain: SEISSDNFKQSLTPSTTTSKEHPETGLTGGRQQKRHWSGKERDSAGLFSQRHMDRLEDDGTSMEGLSPVRLEMGPGDTMKAEVHGEVRASAQMRQGSHPAEGELNRKGRRHSHRLLAEHRKHGGKKDKGRGKGDLSDPEPELDSLLKDLNAFEDGLNTSPPNYNSVPLNEVPSPLSPILVTTAIKGHPPTLPPASTKPQKSSQGRTQGEVMPTLDMTLFDWTDYEDMKPADSWPSNKRKDKRRSKNKSNGNTTTEAGIVEPCDHHLDCLSGSCCDLREFECKPHNRGLNNKCFDDCMCEEGLRCYAKFHRKRRVTRRRGRCVDPESVNSNQGAFITV
In the case of B1, the binding entry with RGMc, AVEXIS protein is recorded as “no binding (tested: 10000 nM)”.

B2: zebrafish DraxinA, AVEXIS prey or bait protein (ligand)
chain: SEISSDNFKQSLTPSTTTSKEHPETGLTGGRQQKRHWSGKERDSAGLFSQRHMDRLEDDGTSMEGLSPVRLEMGPGDTMKAEVHGEVRASAQMRQGSHPAEGELNRKGRRHSHRLLAEHRKHGGKKDKGRGKGDLSDPEPELDSLLKDLNAFEDGLNTSPPNYNSVPLNEVPSPLSPILVTTAIKGHPPTLPPASTKPQKSSQGRTQGEVMPTLDMTLFDWTDYEDMKPADSWPSNKRKDKRRSKNKSNGNTTTEAGIVEPCDHHLDCLSGSCCDLREFECKPHNRGLNNKCFDDCMCEEGLRCYAKFHRKRRVTRRRGRCVDPESVNSNQGAFITV
With B2, the binding entry in assay [1], in assay [2] and in assay [3] was “no binding” each time.
For the molecule EVMPTLDMTLFDWTDYEDMKP (Fc fusion, not shown: a dimerising Fc or GST) [Draxinaa232-252-hFc], the binding result in assay [4] was “no binding (tested: dilution 1, no concentration printed)”; with Cntn1a, AVEXIS protein, “no binding (tested: dilution 1, no concentration printed)”; with EphB4a, AVEXIS protein, “no binding (tested: dilution 1, no concentration printed)”.
